Results published in PubChem BioAssay AID2685 (National Center for Advancing Translational Sciences (NCATS), 2010).
The other results are listed elsewhere or left out. Further columns of the screen follow, without active or inactive calls. The list favours compounds with an active or inconclusive main result. The note in brackets gives the kind of curve behind each potency; many fits are weak.

Assay: qHTS Assay for Lipid Storage Modulators in Drosophila S3 Cells;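 as to cell number change: cells counted by Cell Tracker Red CMTPX staining in the red channel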
Settings: BODIPY lipid droplet fluorescence, 18-24 h; for cell number change: measured here: cell count max response, cells fed with added oleic acid
Text: NIH Molecular Libraries Probe Production Centers Network [MLPCN] NIH Chemical Genomics Center [NCGC] MLPCN Grant: 1 R03 MH085686-01 Assay Submitter (PI): Beller, Mathias; Max-Planck-Institut fur Biophysikalische Chemie NCGC Assay Overview: Storing lipids as a reservoir for energy or the anabolism of elementary metabolites is a common feature of probably all cells and is conserved from bacteria to humans. The universal cellular lipid storage organelle is the so-called lipid storage droplet (LD). Although ubiquitous, LDs share a simple structure composed of a hydrophobic core that harbors the storage lipids, which is shielded by a droplet-specific phospholipid monolayer to which proteins are attached. The current model of LD biogenesis involves an incorporation of the lipid core into the membrane leaflets of the endoplasmic reticulum (ER) followed by a subsequent budding-like maturation of a LD, which ultimately pinches off. Once released, LD volume can increase by localized lipogenesis or fusion of existing droplet. Storage lipids are re-mobilized enzymatically by lipase activity. Lipase regulation in the adipocyte is heavily studied and involves multiple components including catecholamine signaling, the LD-associated proteins Perilipin and comparative gene identification (CGI-58) and at least two lipases named hormone sensitive lipase (HSL) and adipocyte triglyceride lipase (ATGL). LD regulation outside of the adipocyte is poorly understood and only few components are known. However, there is an urgent need to learn more about ectopic fat depots as mislocalized storage of lipids, for example in the liver or muscle, is an eminent health problem associated with insulin resistance or the metabolic syndrome. We developed a laser-scanning cytometer assay to enable 1,536-well screening and combined the results of the small molecules screen with an RNAi database based on lipid storage.
Triacsin C (Sigma-Aldrich T-4540), an inhibitor of long-chain fatty acyl CoA synthetase that blocks synthesis of triglycerides, was used as a positive control for lipid under-storage. A total of 23 nL of compound solution of different concentrations were transferred to the assay plates using a Kalypsys pin tool equipped with a 1,536-pin array containing 10-nL slotted pins (FP1S10, 0.457-mm diameter, 50.8 mm long; V&P Scientific). One microliter of oleic acid (400 uM) was added, and the plate was lidded with stainless steel rubber gasket lined lids containing pinholes. […] Fluorescence was detected by excitation of the fluorophores with a 488-nm laser on an Acumen Explorer (TTP Lab Tech). The total intensity in channel 2 (500-530 nm) reflected lipid droplet accumulation. Cells were detected using channel 3 (575-640 nm) with 5-um width and 100-um depth filters. The ratio of the number of objects in PMT channel 2 over the number of objects in PMT channel 3 was also calculated. Percent activity was computed relative to an internal control (100% inhibited lipid droplet deposition due to the presence of 20 uM Triacsin C), which was added to 32 wells/plate.

[1] = measured here: lipid fluorescence (Fed channel) AC50, cells fed with added oleic acid
[2] = measured here: cell number channel AC50, cells fed with added oleic acid

| Compound | cell number change [%] | AC50 [1] | AC50 [2] |
| --- | --- | --- | --- |
| CCOc1ccc2oc(C(=O)N3CCN(Cc4ccccc4)CC3)c(C)c2c1 | 19 | 29.1 µM [rising, single point] |  |
| Cc1[nH]c2c(ccc3ccccc32)c1C1C(CCN)C1(C)C (configuration not stated) | 3.31 | 3.66 µM [falling, partial curve, poor fit] |  |
| Cc1ccc(S(=O)(=O)n2cc(-c3ccccc3)c(N)n2)cc1 | 31.2 | 6.51 µM [rising, single point] | 5.8 µM [rising, full curve, poor fit] |
| CCn1c(C)c(C(C)=O)c(N2CCCC2)nc1=S | 1.33 |  |  |
| CC(C)c1ccc(NC2CCCN(C(=O)c3cccc(N4CCNC4=O)c3)C2)cc1 (configuration not stated) |  | 6.51 µM [rising, single point] |  |
| COc1cc(C(=O)N/N=C/c2ccc(OC(=O)c3ccccc3)c(OC)c2)ccc1O | -5.6 | 0.731 µM [rising, partial curve, poor fit] |  |
| C=CCSc1nnc(-c2ccncc2)n1-c1ccc(OCC)cc1 | 36.7 | 0.13 µM [rising, full curve, poor fit] | 29.1 µM [rising, single point] |
| CC(C)CCOc1ccc(C(=O)NCC(c2cccs2)N2CCOCC2)cc1 (configuration not stated) | 0.81 |  |  |
| Cn1c(SCC(=O)NCc2ccc3c(c2)OCO3)nnc1-c1cc2ccccc2cc1O | -26.1 |  |  |
| O=C(N/N=C/c1cccs1)c1n[nH]c2c1CCCC2 | -25.5 |  | 0.0731 µM [rising, full curve, poor fit] |
| Cc1ccc(NCC(=O)Nc2ccc(Br)cc2)cc1C | -26 |  |  |
| COC(=O)C1=NNC2C(=O)N(c3ccc(C)cc3)C(=O)C12 (configuration not stated) | 85.7 |  | 20.6 µM [rising, single point] |
| CC(C)Nc1cc(N2CCCC2)ccc1[N+](=O)[O-] | -7.63 | 0.461 µM [falling, single point] |  |
| Cc1cc(C)c(C)c(OCCCOc2cccc3cccnc23)c1 | -70.9 | 29.1 µM [falling, single point] | 25.9 µM [falling, partial curve] |
| O=C(NCc1ccccc1)C1CCCN(c2nc3ccsc3c(=O)s2)C1 (configuration not stated) | 12.6 | 6.51 µM [rising, single point] |  |
| COc1cccc(/C=C/C(=O)Nc2ccc3c(c2)OCCO3)c1 | 47.5 | 29.1 µM [rising, single point] | 29.1 µM [rising, single point] |
| CCn1c(=O)c(=O)[nH]c2cc(C(=O)NC3CC3)ccc21 | -4.32 | 0.146 µM [falling, full curve, poor fit] |  |
| CCOc1cccc(C2/C(=C(/O)c3ccc4c(c3)CC(C)O4)C(=O)C(=O)N2CCCn2ccnc2)c1 (configuration not stated) | 25.4 |  |  |
| O=C(NC1CCCCCC1)c1cc(S(=O)(=O)N2CCOCC2)ccc1F | 16 | 0.58 µM [rising, single point] |  |
| CSc1nnc(-c2ccncc2)n1/N=C/c1cn(-c2ccccc2)nc1-c1ccc(Cl)cc1 | 2.84 | 0.58 µM [rising, full curve, poor fit] |  |

A second format for nine compounds above:
Compound,cell number change [%],AC50 [1],AC50 [2]
Cc1ccc(S(=O)(=O)n2cc(-c3ccccc3)c(N)n2)cc1,31.2,"6.51 µM [rising, single point]","5.8 µM [rising, full curve, poor fit]"
O=C(N/N=C/c1cccs1)c1n[nH]c2c1CCCC2,-25.5,,"0.0731 µM [rising, full curve, poor fit]"
Cc1ccc(NCC(=O)Nc2ccc(Br)cc2)cc1C,-26,,
COC(=O)C1=NNC2C(=O)N(c3ccc(C)cc3)C(=O)C12 (configuration not stated),85.7,,"20.6 µM [rising, single point]"
CC(C)Nc1cc(N2CCCC2)ccc1[N+](=O)[O-],-7.63,"0.461 µM [falling, single point]",
Cc1cc(C)c(C)c(OCCCOc2cccc3cccnc23)c1,-70.9,"29.1 µM [falling, single point]","25.9 µM [falling, partial curve]"
CCOc1cccc(C2/C(=C(/O)c3ccc4c(c3)CC(C)O4)C(=O)C(=O)N2CCCn2ccnc2)c1 (configuration not stated),25.4,,
O=C(NC1CCCCCC1)c1cc(S(=O)(=O)N2CCOCC2)ccc1F,16,"0.58 µM [rising, single point]",
CSc1nnc(-c2ccncc2)n1/N=C/c1cn(-c2ccccc2)nc1-c1ccc(Cl)cc1,2.84,"0.58 µM [rising, full curve, poor fit]",

Additional records

| Compound | cell number change [%] | AC50 [1] | AC50 [2] |
| --- | --- | --- | --- |
| COC(=O)c1cccc(NC(=O)CCCOc2cccc(C)c2)c1 | -15.4 | 3.26 µM [rising, partial curve] |  |
| CC(=O)N1CCc2c(sc(NC(=O)C3CCCN3S(=O)(=O)c3cccs3)c2C#N)C1 (configuration not stated) |  | 2.31 µM [rising, single point] |  |
| COc1ccc(C2c3c(oc4ccccc4c3=O)C(=O)N2c2ccc(C)cn2)cc1OC (configuration not stated) | 17.7 | 10.3 µM [rising, partial curve] |  |
| COC(=O)C(C)Sc1nnc(Cc2cc(=O)[nH]c(=O)[nH]2)n1-c1cccc(OC)c1 (configuration not stated) | -17.3 |  |  |
| O=C(CCN1C(=O)c2ccccc2S1(=O)=O)NCc1ccccc1 | 28.5 |  |  |
| Cc1c(C(=O)Nc2ccc3c(c2)OCCO3)sc2nc(-c3ccccc3)cn12 | -34.9 |  | 16.4 µM [falling, single point] |
| CCC(=O)Nc1ccc(C(=O)NNC(=O)c2cc(OC)c(OC)c(OC)c2)cc1 | 14 | 23.1 µM [rising, partial curve] |  |
| CC(C)(C)OC(=O)N1CCOCCOCCN(C(=O)OC(C)(C)C)CCOCCOCC1 |  | 7.31 µM [falling, partial curve, poor fit] |  |
| CCCNC(=O)c1onc(CSc2cccc(OC)c2)c1C(=O)NCCC | 9.31 | 6.51 µM [rising, single point] |  |
| Cc1cccc(N2C(=O)C(O)=C(C(=O)c3cccs3)C2c2cccc(Oc3ccccc3)c2)n1 (configuration not stated) | 33.1 |  |  |
| CC1=NN(C(=O)CCc2ccccc2)C(O)(c2ccncc2)C1 (configuration not stated) | 39.2 |  | 3.66 µM [rising, full curve] |
| Cc1onc(-c2ccccc2Cl)c1C(=O)Nc1ccc(CN2CCCC2)cc1 | 85.7 |  | 29.1 µM [rising, single point] |
| CCOC(=O)N1CCN(C(=O)COC(=O)CSc2cc(C)c(Br)cc2C)CC1 | 18.3 | 29.1 µM [falling, single point] |  |
| CCCC1(C(=O)O)NC(c2ccc(OC)cc2O)C2C(=O)N(c3ccc(OC)cc3)C(=O)C21 (configuration not stated) | 8.15 | 0.326 µM [falling, partial curve, poor fit] | 0.411 µM [falling, single point] |
| CCc1ccc(C(=O)CSc2nc(C)cc(=O)[nH]2)cc1 | 0.631 |  |  |
| CCNc1ccc(S(=O)(=O)N2CCCCC2)cn1 | 0.688 | 6.51 µM [rising, single point] |  |
| COc1ccccc1NC(=O)CSc1n[nH]c(-c2cccnc2)n1 | 18.4 | 29.1 µM [rising, single point] |  |
| O=C(CNC(=O)c1ccccc1F)OC(C(=O)Nc1cc(C(F)(F)F)ccc1Cl)c1ccccc1 (configuration not stated) | 1.89 | 0.326 µM [rising, full curve, poor fit] |  |
| COC(=O)C1(C(F)(F)F)C2C=CC(C2)N1S(=O)(=O)c1ccc(C)cc1 (configuration not stated) | 17.9 | 5.17 µM [falling, single point] |  |
| COc1ccc(OC)c(-c2csc(NC(=O)Cc3ccccc3OC)n2)c1 | 26.7 |  |  |
